According to PMC9167300:
No constants are given. Whether binding was seen depends on the method and setting. Binding seen in cells or lysates may run through a third protein. Here binding means that the protein was enriched with, or labelled near, the bait; the list need not be complete.

The chains behind the UniProt entries cited, without tags or fusion partners. Where a name states a change or a piece, a line headed by the entry shows the natural chain unless it says otherwise. Residues count along the entry.
UniProt Q8R455, residues 980-1104: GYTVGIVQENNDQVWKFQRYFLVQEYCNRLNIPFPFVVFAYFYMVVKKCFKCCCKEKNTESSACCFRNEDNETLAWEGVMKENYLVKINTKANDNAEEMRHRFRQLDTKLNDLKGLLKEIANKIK
UniProt P63104: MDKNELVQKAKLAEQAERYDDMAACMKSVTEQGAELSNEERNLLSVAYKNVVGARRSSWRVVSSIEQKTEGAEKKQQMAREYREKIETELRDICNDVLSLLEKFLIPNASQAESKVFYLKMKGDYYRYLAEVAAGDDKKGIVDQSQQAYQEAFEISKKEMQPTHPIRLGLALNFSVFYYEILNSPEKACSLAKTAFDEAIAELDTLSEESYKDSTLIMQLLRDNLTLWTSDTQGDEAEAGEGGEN
UniProt P06239: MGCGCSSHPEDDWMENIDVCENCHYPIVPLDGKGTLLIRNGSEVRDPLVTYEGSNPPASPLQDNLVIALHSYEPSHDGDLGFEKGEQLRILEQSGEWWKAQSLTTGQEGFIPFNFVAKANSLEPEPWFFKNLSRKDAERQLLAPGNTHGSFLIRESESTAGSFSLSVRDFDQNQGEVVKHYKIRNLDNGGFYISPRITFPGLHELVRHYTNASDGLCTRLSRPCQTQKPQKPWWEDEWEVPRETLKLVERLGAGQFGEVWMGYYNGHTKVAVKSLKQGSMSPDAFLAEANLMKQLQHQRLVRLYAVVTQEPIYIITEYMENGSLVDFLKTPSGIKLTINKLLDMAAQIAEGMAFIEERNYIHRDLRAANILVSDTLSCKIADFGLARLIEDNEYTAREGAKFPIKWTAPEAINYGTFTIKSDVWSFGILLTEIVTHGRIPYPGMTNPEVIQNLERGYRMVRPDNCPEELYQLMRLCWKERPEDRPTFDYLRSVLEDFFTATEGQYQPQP
UniProt P51451: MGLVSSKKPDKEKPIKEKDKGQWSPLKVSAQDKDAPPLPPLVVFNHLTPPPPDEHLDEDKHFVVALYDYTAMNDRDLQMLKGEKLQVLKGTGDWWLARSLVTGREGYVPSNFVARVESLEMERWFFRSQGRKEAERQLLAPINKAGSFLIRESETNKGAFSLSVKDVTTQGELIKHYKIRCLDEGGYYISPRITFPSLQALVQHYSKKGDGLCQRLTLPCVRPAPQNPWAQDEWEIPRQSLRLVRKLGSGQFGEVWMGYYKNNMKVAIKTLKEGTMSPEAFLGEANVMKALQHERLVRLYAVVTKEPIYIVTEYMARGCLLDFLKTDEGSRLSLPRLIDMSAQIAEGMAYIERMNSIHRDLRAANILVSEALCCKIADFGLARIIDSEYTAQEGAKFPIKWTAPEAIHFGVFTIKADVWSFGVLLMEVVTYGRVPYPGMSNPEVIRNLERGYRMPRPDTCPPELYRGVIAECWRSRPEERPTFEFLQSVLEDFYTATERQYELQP

target: GST-tagged C-terminus of TRPM8 (GST-M8C) (rat) (UniProt Q8R455); experiment: affinity purification with mass spectrometry; GST pull-down with the C-terminus of TRPM8 (M8C, 980-1104) combined with MS of ~60 kD and ~30 kD bands; the text also says Co-IP and MS assays in MCF7 cells; only the target purified

Question: How did the binding turn out when “14-3-3ζ, endogenous (from UniProt P63104 1-245)” was run?
Answer: Its binding is “binds”.

Question: How did the binding turn out when “LCK, endogenous (from UniProt P06239 1-509) (enzyme)” was run?
Answer: The binding was “binds”.

Question: With “BLK, endogenous in MCF7 cells (from UniProt P51451 1-505) (enzyme)” as the substance, how does the binding read?
Answer: The binding was “binds”.
